Source: PubChem BioAssay AID1159578 (Peter MacCallum Cancer Centre, 2015)
The whole screen tested about 18,000 reagents; shown is a part drawn at random. About 1,030 of all reagents (5.7%) were called active. 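Inactive calls also include pools with fewer than 3300 nuclei, whose migration was not assessed.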 Raw values are not corrected between plates.

- Assay: 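Genome-wide hunt for genes controlling movement of lymphatic endothelial cells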 (primary screen)
- Cell system: human lymphatic endothelial cells
- Reagent: siRNA pool against human genes, 40 nM
- Time to read-out: 48 h after transfection
- Detection: 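High-content imaging of dye-stained cells in a scratch assay measures filled wound area and nuclei per well; duplicate means given as ratio to mock and robust z-score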
- Direction: migration robust z-score: higher = faster migration into the scratch; migration relative to mock: higher = more scratch area covered than mock; nuclei per well: higher = more cells in the well
- Rule for the call: 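Migration changed when robust z exceeds 2 or falls below -2 and mean nuclei number is at least 3300; otherwise not called changed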
- Meaning of the calls: active = migration changed; inactive = no migration change, or too few cells

The first 5 records as a preview:
Gene | migration robust z-score | migration class with cell-count check | migration relative to mock | nuclei per well, duplicate mean | Call
CNTF (ciliary neurotrophic factor) | 0.18 | migration z between -2 and 2; enough cells | 0.84 | 5852 | inactive
PNPLA5 (patatin like domain 5, triacylglycerol lipase) | 0.57 | migration z between -2 and 2; enough cells | 1.03 | 5916 | inactive
SPATA32 (spermatogenesis associated 32) | 1.4 | migration z between -2 and 2; enough cells | 1.25 | 5757 | inactive
STK31 (serine/threonine kinase 31) | -0.44 | migration z between -2 and 2; enough cells | 0.72 | 4592 | inactive
ALDH5A1 (aldehyde dehydrogenase 5 family member A1) | 0.13 | migration z between -2 and 2; enough cells | 0.83 | 5180 | inactive

Results, repeating the preview:
Gene | migration robust z-score | migration class with cell-count check | migration relative to mock | nuclei per well, duplicate mean | Call
CNTF (ciliary neurotrophic factor) | 0.18 | migration z between -2 and 2; enough cells | 0.84 | 5852 | inactive
PNPLA5 (patatin like domain 5, triacylglycerol lipase) | 0.57 | migration z between -2 and 2; enough cells | 1.03 | 5916 | inactive
SPATA32 (spermatogenesis associated 32) | 1.4 | migration z between -2 and 2; enough cells | 1.25 | 5757 | inactive
STK31 (serine/threonine kinase 31) | -0.44 | migration z between -2 and 2; enough cells | 0.72 | 4592 | inactive
ALDH5A1 (aldehyde dehydrogenase 5 family member A1) | 0.13 | migration z between -2 and 2; enough cells | 0.83 | 5180 | inactive
DCTN5 (dynactin subunit 5) | -0.15 | under 3300 nuclei; migration not judged | 0.85 | 2920 | inactive
RARG (retinoic acid receptor gamma) | 0.16 | migration z between -2 and 2; enough cells | 0.84 | 5127 | inactive
COBLL1 (cordon-bleu WH2 repeat protein like 1) | -0.2 | migration z between -2 and 2; enough cells | 0.84 | 4452 | inactive
GPX5 (glutathione peroxidase 5) | 0.83 | migration z between -2 and 2; enough cells | 0.97 | 5750 | inactive
PARPBP (PARP1 binding protein) | 1.53 | migration z between -2 and 2; enough cells | 1.28 | 5452 | inactive
C1QTNF1 (C1q and TNF related 1) | -0.32 | migration z between -2 and 2; enough cells | 0.8 | 6697 | inactive
OSBP2 (oxysterol binding protein 2) | -0.64 | migration z between -2 and 2; enough cells | 0.72 | 5562 | inactive
AGFG2 (ArfGAP with FG repeats 2) | -0.68 | migration z between -2 and 2; enough cells | 0.71 | 5774 | inactive
GKN2 (gastrokine 2) | -0.48 | migration z between -2 and 2; enough cells | 0.76 | 5684 | inactive
ZNF275 (zinc finger protein 275) | -0.4 | migration z between -2 and 2; enough cells | 0.78 | 5460 | inactive
COG7 (component of oligomeric golgi complex 7) | 0.39 | migration z between -2 and 2; enough cells | 0.98 | 6640 | inactive
TNFSF11 (TNF superfamily member 11) | -0.88 | migration z between -2 and 2; enough cells | 0.66 | 4490 | inactive
RCC1L (RCC1 like) | 0.04 | migration z between -2 and 2; enough cells | 0.9 | 5352 | inactive
WASF3 (WASP family member 3) | 1.19 | migration z between -2 and 2; enough cells | 1.19 | 7412 | inactive
C19orf73 (chromosome 19 open reading frame 73) | -1.18 | migration z between -2 and 2; enough cells | 0.57 | 5314 | inactive
UCHL5 (ubiquitin C-terminal hydrolase L5) | 0.26 | migration z between -2 and 2; enough cells | 0.86 | 5901 | inactive
AOX1 (aldehyde oxidase 1) | 0.1 | migration z between -2 and 2; enough cells | 0.82 | 5102 | inactive
TMEM216 (transmembrane protein 216) | 0.88 | migration z between -2 and 2; enough cells | 1.12 | 6588 | inactive
CDC7 (cell division cycle 7) | 0.24 | migration z between -2 and 2; enough cells | 0.85 | 5186 | inactive
PDIA5 (protein disulfide isomerase family A member 5) | -0.02 | migration z between -2 and 2; enough cells | 0.8 | 5017 | inactive
MSMP (microseminoprotein, prostate associated) | 0.22 | migration z between -2 and 2; enough cells | 0.94 | 5133 | inactive
F5 (coagulation factor V) | 1.01 | migration z between -2 and 2; enough cells | 1 | 7144 | inactive
KCTD17 (potassium channel tetramerization domain containing 17) | -0.8 | migration z between -2 and 2; enough cells | 0.68 | 4606 | inactive
KDM7A (lysine demethylase 7A) | -0.24 | migration z between -2 and 2; enough cells | 0.76 | 6650 | inactive
MASTL (microtubule associated serine/threonine kinase like) | -0.28 | migration z between -2 and 2; enough cells | 0.75 | 3810 | inactive
DAZAP1 (DAZ associated protein 1) | 0.19 | migration z between -2 and 2; enough cells | 0.93 | 7572 | inactive
FDX1 (ferredoxin 1) | 0.55 | migration z between -2 and 2; enough cells | 0.91 | 6272 | inactive
IFNAR2 (interferon alpha and beta receptor subunit 2) | 0.44 | migration z between -2 and 2; enough cells | 0.89 | 6337 | inactive
PEG3 (paternally expressed 3) | 0.26 | migration z between -2 and 2; enough cells | 0.95 | 6065 | inactive
TAF9B (TATA-box binding protein associated factor 9b) | 0.26 | migration z between -2 and 2; enough cells | 0.86 | 4657 | inactive
SLC25A39 | 0.93 | migration z between -2 and 2; enough cells | 1.12 | 6777 | inactive
WWC3 (WWC family member 3) | -0.56 | under 3300 nuclei; migration not judged | 0.74 | 3169 | inactive
AP2S1 (adaptor related protein complex 2 subunit sigma 1) | -0.02 | migration z between -2 and 2; enough cells | 0.88 | 6082 | inactive
NTNG1 (netrin G1) | 0.18 | migration z between -2 and 2; enough cells | 0.94 | 5932 | inactive
COX7A1 (cytochrome c oxidase subunit 7A1) | 0.65 | migration z between -2 and 2; enough cells | 1.06 | 5818 | inactive
ODF4 (outer dense fiber of sperm tails 4) | 0.78 | migration z between -2 and 2; enough cells | 1.08 | 6435 | inactive
PPAT (phosphoribosyl pyrophosphate amidotransferase) | 0.24 | migration z between -2 and 2; enough cells | 0.85 | 4957 | inactive
RWDD2B (RWD domain containing 2B) | -1.7 | migration z between -2 and 2; enough cells | 0.44 | 6408 | inactive
MS4A15 (membrane spanning 4-domains A15) | 2.05 | migration z above 2; enough cells | 1.42 | 6318 | active
ZNF554 (zinc finger protein 554) | -0.33 | migration z between -2 and 2; enough cells | 0.8 | 5863 | inactive
SPCS1 (signal peptidase complex subunit 1) | -0.83 | migration z between -2 and 2; enough cells | 0.64 | 4556 | inactive
C1orf94 (chromosome 1 open reading frame 94) | -1.7 | migration z between -2 and 2; enough cells | 0.44 | 5116 | inactive
NR1D1 (nuclear receptor subfamily 1 group D member 1) | -1.3 | migration z between -2 and 2; enough cells | 0.56 | 5280 | inactive
CMTM6 (CKLF like MARVEL transmembrane domain containing 6) | -0.85 | migration z between -2 and 2; enough cells | 0.67 | 7004 | inactive
KIAA2012 | 0.38 | migration z between -2 and 2; enough cells | 0.98 | 5892 | inactive
RGP1 (RGP1 partner of RAB6A GEF complex) | -0.18 | migration z between -2 and 2; enough cells | 0.84 | 4720 | inactive
KCNS1 | -1.22 | migration z between -2 and 2; enough cells | 0.57 | 5232 | inactive
NME2 (NME/NM23 nucleoside diphosphate kinase 2) | 0.39 | migration z between -2 and 2; enough cells | 0.88 | 5274 | inactive
NIPAL2 (NIPA like domain containing 2) | 0.15 | migration z between -2 and 2; enough cells | 0.92 | 5004 | inactive
CTIF (cap binding complex dependent translation initiation factor) | 0.14 | migration z between -2 and 2; enough cells | 0.92 | 6285 | inactive
ATP8B1 (ATPase phospholipid transporting 8B1) | -0.16 | migration z between -2 and 2; enough cells | 0.78 | 4636 | inactive
CERCAM (cerebral endothelial cell adhesion molecule) | 0.8 | migration z between -2 and 2; enough cells | 0.96 | 6762 | inactive
